In the supplement of paper PMC11060735:
Where “and” joins values, the source holds several entries; their conditions need not be identical. Equal values may be shown once. Where a name gives a salt, the structure may show the parent alone. ± gives the standard deviation of the averaged measurements. Over roughly 1,800 compounds, “GFP- (p16Ink4a-) cell count relative to negative-control wells” has its median near 0.99; the lowest 2% begin near 0.5. The list shows a part of the results.

Test system: mouse p16Ink4a+/- lung fibroblasts (INKBRITE, bleomycin-injured)
Experiment: GFP- (p16Ink4a-) cell count relative to negative-control wells (fold of vehicle); higher = more p16Ink4a- cells surviving
Details: 1 µM; 3 days

Compound | GFP-
N[C@H]1C[C@@H]1c1ccc(-c2cccc(O)c2)cc1 | 1.01 ± 0.044
Nc1ncnc2c1ncn2[C@@H]1O[C@H](CO)[C@@H](O)[C@H]1O [Adenosine] | 1.01
CS(=O)(=O)c1ccc([C@@H](O)[C@@H](CF)NC(=O)C(Cl)Cl)cc1 [Florfenicol] | 0.943
c1ccc2c(CC3=NCCN3)cccc2c1 [Naphazoline] | 1.1
CN[C@@H]1[C@H](O)[C@H](NC)[C@H]2O[C@@]3(O)C(=O)C[C@@H](C)O[C@H]3O[C@@H]2[C@H]1O [Spectinomycin] | 1.11
CN1CCOC(c2ccccc2)c2ccccc2C1 (stereo not given) [Nefopam] | 1.1
COC(=O)Nc1nc2cc(S(=O)c3ccccc3)ccc2[nH]1 (stereo not given) [Oxfendazole] | 1.02
OCc1c[nH]c2ccccc12 [Indole-3-carbinol] | 0.967
CCC(C)(C)C(=O)O[C@H]1C[C@@H](C)C=C2C=C[C@H](C)[C@H](CC[C@@H]3C[C@@H](O)CC(=O)O3)[C@H]21 [Simvastatin] | 0.565
O=C(O)c1cccnc1 [Niacin] | 1.06
Cc1ccc(F)c(NC(=O)Nc2ccc(-c3cccc4[nH]nc(N)c34)cc2)c1 [Linifanib] | 0.965
Cc1nc(O)c2cc(CN(C)c3ccc(C(=O)N[C@@H](CCC(=O)O)C(=O)O)s3)ccc2n1 [Raltitrexed] | 1.01
CN(C)CCC(c1ccc(Cl)cc1)c1ccccn1 (stereo not given) [Chlorphenamine] | 1.04
CC(=O)NS(=O)(=O)c1ccc(N)cc1 [Sulfacetamide] | 0.929
CC[C@H]1OC(=O)C[C@@H](O)[C@H](C)[C@@H](O[C@@H]2O[C@H](C)[C@@H](O)[C@H](N(C)C)[C@H]2O)[C@@H](CCN2C[C@H](C)C[C@H](C)C2)C[C@@H](C)C(=O)/C=C/C(C)=C/[C@@H]1CO[C@@H]1O[C@H](C)[C@@H](O)[C@@H](OC)[C@H]1OC [Tilmicosin] | 0.931
COC(=O)Nc1nc2cc(C(=O)c3cccs3)ccc2[nH]1 [Nocodazole] | 0.555
CC1=C(C(=O)OC2CCCCC2)C(c2ccc([N+](=O)[O-])cc2)C2=C(O)CC(C)(C)CC2=N1 (stereo not given) | 0.82
CC1CC(OC(=O)C(O)c2ccccc2)CC(C)(C)C1 (stereo not given) [Cyclandelate] | 1.2
CCN(CC)CC(=O)Nc1c(C)cccc1C [Lidocaine] | 1.01
CC(CNC(=O)c1cccnc1)NC(=O)c1cccnc1 (stereo not given) [Nicaraven] | 1.16
CC(C)NCC(O)c1ccc(NS(C)(=O)=O)cc1 (stereo not given) [Sotalol] | 1.13
c1ccc(CC2=NCCN2)cc1 [Tolazoline, Priscoline] | 1.04
O=C(O)c1cccnc1Nc1cccc(C(F)(F)F)c1 [Niflumic Acid] | 1.04
CC1(C)S[C@@H]2[C@H](NC(=O)[C@H](N)c3ccccc3)C(=O)N2[C@H]1C(=O)O [Ampicillin] | 1.02 and 1.05
O=C(NCc1cccc(O)c1)Nc1nc(-c2ccncc2)cs1 | 1.17
CC(=O)N1CCN(CCOc2ccc(C3CCN(C4=Nn5c(nnc5C(F)(F)F)CC4)CC3)cc2)CC1 | 1.03
CCCOc1ccc(C(=O)OCCN(CC)CC)cc1N [Proparacaine] | 1.12

Compound | GFP-
C[N+](C)(C)CC(O)CC(=O)O (stereo not drawn) [Carnitine Hydrochloride, Carnitine (dl) Hydrochloride] | 1.1
O=C(CCCN1CC=C(n2c(O)nc3ccccc32)CC1)c1ccc(F)cc1 [Droperidol] | 1.01
C[C@@H](Oc1cc(-n2cnc3ccc(CN4CCN(C)CC4)cc32)sc1C(N)=O)c1ccccc1C(F)(F)F | 0.767
Cc1ccc(S(=O)(=O)n2c(N)nc3ccccc32)cc1 [Nodinitib-1] | 0.996
C[C@]12CC[C@@H]3c4ccc(O)cc4CC[C@H]3[C@@H]1CC[C@@H]2O [Estradiol] | 1.04
Clc1ccc(CSC(Cn2ccnc2)c2ccc(Cl)cc2Cl)cc1 (stereo not given) [Sulconazole] | 1.03
COc1cc2nccc(Oc3ccc(NC(=O)C4(C(=O)Nc5ccc(F)cc5)CC4)cc3)c2cc1OC [Cabozantinib] | 0.824
OCCOCCN1CCN(C(c2ccccc2)c2ccc(Cl)cc2)CC1 (stereo not given) [Hydroxyzine] | 0.883
Cc1cc(Nc2cc(N3CCN(C)CC3)nc(Sc3ccc(NC(=O)C4CC4)cc3)n2)n[nH]1 | 0.706 ± 0.081
O=C(Nc1cc(C(F)(F)F)cc(C(F)(F)F)c1)c1cc(Cl)ccc1O | 1.16
C=CCc1cccc(/C=N/NC(=O)CN2CCN(Cc3ccccc3)CC2)c1O | 0.654
COc1cc2nccc(Oc3ccc(NC(=O)NC4CC4)c(Cl)c3)c2cc1C(N)=O [Lenvatinib] | 0.982
Nc1ccc(S(N)(=O)=O)cc1 [Sulfanilamide] | 0.957
CCc1nc(-c2cccc(C)c2)c(-c2ccnc(NC(=O)c3ccccc3)c2)s1 | 0.996
CN1CCCC(n2nc(Cc3ccc(Cl)cc3)c3ccccc3c2=O)CC1 (stereo not given) [Azelastine, Azelastine Hydrochloride] | 1
NC(=O)OCC(COC(N)=O)c1ccccc1 [Felbamate] | 1.08
CC(C)(Oc1ccc(C2CC2(Cl)Cl)cc1)C(=O)O (stereo not given) [Ciprofibrate] | 0.748
Nc1ccc(S(=O)(=O)Nc2nccs2)cc1 [Sulfathiazole] | 0.866
Oc1ccc([C@H]2COc3cc(O)ccc3C2)cc1 [Equol] | 1.06
COc1ccc([C@@H]2Sc3ccccc3N(CCN(C)C)C(=O)[C@@H]2OC(C)=O)cc1 [Diltiazem] | 1.04
COc1ccc2[nH]cc(CCNC(C)=O)c2c1 [Melatonin] | 1.3
Clc1ccc(C(Cn2ccnc2)OCc2ccsc2Cl)c(Cl)c1 (stereo not given) [Tioconazole] | 0.993
CSc1nc2cc(Cl)c(Oc3cccc(Cl)c3Cl)cc2[nH]1 [Triclabendazole] | 0.963
O=C(Oc1cc(S(=O)(=O)c2ccccc2)ccc1[N+](=O)[O-])c1ccc(Cl)cc1 | 0.709
Cc1cc(C2CCCCC2)n(O)c(=O)c1 [Ciclopirox] | 0.699 and 0.754
NC(=O)c1cnccn1 [Pyrazinamide] | 1.08
Cc1ccccc1C(OCCN(C)C)c1ccccc1 (stereo not given) [Orphenadrine] | 1.11

Compound | GFP-
Nc1nc(N)c(N=O)c(OCC2CCCCC2)n1 | 1.07
OCc1ccc(-c2ccc(-c3ccc(CO)s3)o2)s1 | 0.955
NS(=O)(=O)c1cc2c(cc1Cl)NCNS2(=O)=O [Hydrochlorothiazide] | 1.06
NCC(=O)Nc1ccc(-n2nc(C(F)(F)F)cc2-c2ccc3c(ccc4ccccc43)c2)cc1 | 1.1
C1N2CN3CN1CN(C2)C3 [Hexamethylenetetramine] | 1.03
CC[C@H](c1ccc(O)cc1)[C@@H](CC)c1ccc(O)cc1 [Hexestrol] | 1.07
NC1=N[C@@]2(c3cc(NC(=O)c4ccc(F)cn4)ccc3F)COC[C@H]2CS1 | 0.991
Cc1nccn1CC1CCc2c(c3ccccc3n2C)C1=O (stereo not given) [Ondansetron] | 1.06
Oc1cccc(-c2nc(N3CCOCC3)c3oc4ncccc4c3n2)c1 | 0.8
COc1cc2c(cc1O)CC[C@@H]1[C@@H]2CC[C@]2(C)[C@@H](O)CC[C@@H]12 [2-Methoxyestradiol] | 0.777 ± 0.2
O=C1c2c(O)cc(O)cc2O[C@H](c2ccc(O)c(O)c2)[C@H]1O [Taxifolin (Dihydroquercetin)] | 1.02
CCC[C@@H]1O[C@@H]2C[C@H]3[C@@H]4CCC5=CC(=O)C=C[C@]5(C)[C@H]4[C@@H](O)C[C@]3(C)[C@]2(C(=O)CO)O1 [Budesonide] | 1.06
C=C1C(=O)O[C@H]2[C@H]1CC/C(C)=C\CC[C@@]1(C)O[C@@H]21 [(-)-Parthenolide] | 1.06
CC(C)(C)/[N+]([O-])=C/c1ccc(S(=O)(=O)O)cc1S(=O)(=O)O | 1
Cc1cccc(Nc2ccncc2S(=O)(=O)NC(=O)NC(C)C)c1 [Torasemide] | 1.04
CCCNC(=O)Nc1ccc(Oc2ncnc3cc(OC)c(OC)cc23)cc1Cl | 0.97
CCCCCCCCCC(=O)N[C@@H](Cc1c[nH]c2ccccc12)C(=O)N[C@H](CC(N)=O)C(=O)N[C@@H](CC(=O)O)C(=O)N[C@@H]1C(=O)NCC(=O)N[C@H](CCCN)C(=O)N[C@@H](CC(=O)O)C(=O)N[C@@H](C)C(=O)N[C@@H](CC(=O)O)C(=O)NCC(=O)N[C@H](CO)C(=O)N[C@@H]([C@@H](C)CC(=O)O)C(=O)N[C@@H](CC(=O)c2ccccc2N)C(=O)O[C@@H]1C [Daptomycin] | 1.09
O=C(O[C@H]1CN2CCC1CC2)N1CCc2ccccc2[C@@H]1c1ccccc1 [Solifenacin] | 1.02
c1ccc2c(CCNc3ccc(Nc4ccncc4)cc3)c[nH]c2c1 [Serdemetan] | 1.06
CCOC(=O)CC(=O)N1CCSC1COc1ccccc1OC (stereo not given) [Moguisteine] | 1.1
O=C(NC(Cc1cc(O)nc2ccccc12)C(=O)O)c1ccc(Cl)cc1 (stereo not given) [Rebamipide] | 1.02
CN(C)CCOc1ccc(/C(=C(/CCCl)c2ccccc2)c2ccccc2)cc1 [Toremifene] | 0.996
Cc1c(C(=O)NN2CCCCC2)nn(-c2ccc(Cl)cc2Cl)c1-c1ccc(Cl)cc1 [Rimonabant] | 1.01
O[C@@H]1CO[C@H]2[C@@H]1OC[C@@H]2O [Isosorbide] | 0.881
CO[C@H]1C[C@@H]2CC[C@@H](C)[C@@](O)(O2)C(=O)C(=O)N2CCCC[C@H]2C(=O)O[C@H]([C@H](C)C[C@@H]2CC[C@@H](OP(C)(C)=O)[C@H](OC)C2)CC(=O)[C@H](C)/C=C(\C)[C@@H](O)[C@@H](OC)C(=O)[C@H](C)C[C@H](C)/C=C/C=C/C=C/1C [Ridaforolimus, Deforolimus] | 0.681
CC(C)(C)OC(=O)N[C@H]1CCCCC/C=C\[C@@H]2C[C@@]2(C(=O)NS(=O)(=O)C2CC2)NC(=O)[C@@H]2C[C@@H](OC(=O)N3Cc4cccc(F)c4C3)CN2C1=O [Danoprevir] | 1.12

5 entries from above, as tab-separated lines.
Compound	GFP-
NS(=O)(=O)c1cc2c(cc1Cl)NCNS2(=O)=O [Hydrochlorothiazide]	1.06
CCOC(=O)CC(=O)N1CCSC1COc1ccccc1OC (stereo not given) [Moguisteine]	1.1
O=C(NC(Cc1cc(O)nc2ccccc12)C(=O)O)c1ccc(Cl)cc1 (stereo not given) [Rebamipide]	1.02
Cc1c(C(=O)NN2CCCCC2)nn(-c2ccc(Cl)cc2Cl)c1-c1ccc(Cl)cc1 [Rimonabant]	1.01
CO[C@H]1C[C@@H]2CC[C@@H](C)[C@@](O)(O2)C(=O)C(=O)N2CCCC[C@H]2C(=O)O[C@H]([C@H](C)C[C@@H]2CC[C@@H](OP(C)(C)=O)[C@H](OC)C2)CC(=O)[C@H](C)/C=C(\C)[C@@H](O)[C@@H](OC)C(=O)[C@H](C)C[C@H](C)/C=C/C=C/C=C/1C [Ridaforolimus, Deforolimus]	0.681
